These results are taken from article PMC11117661, “Development of a Novel In Silico Classification Model to Assess Reactive Metabolite Formation in the Cysteine Trapping Assay and Investigation of Important Substructures” (Biomolecules, 2024).

This data set can be described thus: cysteine trapping assay ([35S]cysteine, HPLC with radiomatic detector) for reactive metabolites. The settings on record: human liver microsome 2 mg/mL, L-[35S]-Cysteine, NADPH, 37 °C, 2 h.

`COc1cc2c(cc1OC)C(=O)C(CC1CCN(Cc3ccccc3)CC1)C2` (stereo not shown) [Donepezil]: the RI integrated area is given as 38.4 count.
